From patent US20180313827A1 come the findings set out here.

Chains of the proteins cited; added tags and fusions are not shown. Residues count along the entry.
UniProt Q9NQI0, residues 1-236: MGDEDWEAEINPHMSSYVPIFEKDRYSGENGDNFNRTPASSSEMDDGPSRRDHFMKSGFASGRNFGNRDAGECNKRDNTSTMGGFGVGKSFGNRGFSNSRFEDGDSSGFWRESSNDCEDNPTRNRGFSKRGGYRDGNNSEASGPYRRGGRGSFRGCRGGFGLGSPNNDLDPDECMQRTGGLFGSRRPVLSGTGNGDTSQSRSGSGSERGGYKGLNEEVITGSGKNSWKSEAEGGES

The assay addresses hDdx4_synth_1_YFP_in_pETM30_2HTb (Ddx4 protein in which the DEAD-box helicase domain is replaced with YFP) (human). Kind of assay: co-expression in cultured cells, fluorescence microscopy (co-localisation in organelles).

These are yes or no findings as the source states them, for the method shown. Some binding calls cover weakened binding; strength is not graded here.

Consider “Ddx4 1-236CFP (from UniProt Q9NQI0 1-236)”, for which the binding result is on record as “binds”.
